Experimental data reported in PubChem BioAssay AID504467 (National Center for Advancing Translational Sciences (NCATS), 2011).
The campaign covered roughly 330,000 compounds. About 7,700 (2.3%) were called active. Inconclusive results, whose numbers are uncertain, are shown with a selection of clear calls. Calls come from the whole dose curve; as a rule, active = well fitted inhibition curve with a large enough effect; inconclusive = small, poorly fitted or top-dose-only effect, or effect the other way; inactive = flat fitted curve, though single readings scatter. A potency beside an inconclusive call is a rough fit, not a confirmed value.

Assay: qHTS screen for small molecules that inhibit ELG1-dependent DNA repair in human embryonic kidney (HEK293T) cells expressing luciferase-tagged ELG1; note: nearly all actives have a fitted effect of over 55% in size
Conditions: HEK293T ELG1-luciferase reporter, luminescence, 16 h, DNA damage induced by 5-fluorouridine; activity change, negative = inhibition: at 46.1 µM (top of the series)
Outline: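 HEK293T cells expressing luciferase-tagged ELG1 (2,000/well) received 5-Fluorouridine plus compound or DMSO for 16 hr at 37 °C. Luciferase was read by ONE-Glo luminescence after 30 min at room temperature.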
% is set by controls: 0 for no effect and ±100 for the full control effect; potency is the fitted concentration of half-maximal effect.

SMILES	Potency	activity change, negative = inhibition
CC(=O)NCCc1nc2cc(NC(=O)Nc3ccccc3)ccc2n1C	inconclusive: 10.3 µM [activator, partial curve]	–
Cc1cc(-c2ccc(S(=O)(=O)N3CCN(c4cccc(C)c4C)CC3)s2)on1	inconclusive: 29.1 µM [inhibitor, single point]	–
O=C1CCN2C=Nc3cccc4ccc1c2c34	inconclusive: 25.9 µM [inhibitor, single point]	–
Cc1cnc(NC(=O)c2ccc3ncsc3c2)s1	inconclusive: 2.91 µM [activator, partial curve]	–
CC[C@]12c3[nH]c4ccc(Cl)cc4c3CCN1C(=O)[C@@H](CC(=O)NCCC1=CCCCC1)C[C@@H]2C(=O)N1CCN(C(=O)C2CC2)CC1	inconclusive: 16.4 µM [inhibitor, partial curve, poor fit]	–
O=C(NC1CC1)c1ccc(-n2cccc2)cc1	inconclusive: 25.9 µM [activator, partial curve]	–
Cc1cccc(NC(=O)c2nc[nH]c2C(=O)NCCCCCCNC(=O)c2[nH]cnc2C(=O)Nc2cccc(C)c2)c1	active: 9.2 µM	–
COCc1nnc(NC(=O)CCCOc2ccccc2)s1	–	inactive: 2.22%
O=C(c1ccccc1)N1CCN(c2ccc([N+](=O)[O-])cc2-n2cccc2)CC1	inconclusive: 18.3 µM [inhibitor, partial curve]	–
O=c1c2[nH]c3ccccc3c2nc2n1CCCS2	inconclusive: 23.1 µM [activator, partial curve]	–
COc1ccc(S(=O)(=O)N(C)CC(=O)N2CCCC2)cc1OC	–	inactive: -2.21%
COc1ccc(C(=O)OC(C)C(=O)NC(C)CCc2ccccc2)cc1OC (stereo not drawn)	–	inactive: -15%
CCCCn1nc(C(=O)OCC(=O)Nc2sccc2C(N)=O)c2ccccc2c1=O	–	inactive: 10.7%
CCCOc1ccc(CSCCNC(=S)Nc2ccccc2)cc1	inconclusive: 18.4 µM [inhibitor, partial curve, poor fit]	–
COc1cccc(NC(=S)N(CCC(C)C)C(C)c2ccncc2)c1 (stereo not drawn)	inconclusive: 29.1 µM [activator, partial curve, poor fit]	–
Cc1ccc2nc3sc(C(=O)NCc4ccco4)c(N)c3cc2c1	inconclusive: 2.31 µM [activator, full curve]	–
O=C(/C=C/c1c(F)cccc1Cl)Nc1cccnc1	inconclusive: 2.59 µM [activator, partial curve]	–
O=C(CN1CCN(Cc2ccc(F)cc2Cl)C1=O)NCCc1ccccc1	inconclusive: 13 µM [activator, partial curve, poor fit]	–
CCOC(=O)c1ccc(NS(=O)C23CC4CC(CC(C4)C2)C3)cc1 (stereo not drawn)	inconclusive: 23.1 µM [activator, single point]	–
Cn1cnnc1SCC(=O)c1ccc2c(c1)NC(=O)CO2	–	inactive: 8.46%
O=C(c1ccc(Cn2c(=S)[nH]c3cc4c(cc3c2=O)OCO4)cc1)N1CCN(c2ccccc2)CC1	inconclusive: 18.3 µM [inhibitor, partial curve, poor fit]	–
CCCc1cc(=O)oc2cc(C)cc(OCC(=O)NCCCN3CCCC3=O)c12	inconclusive: 20.6 µM [activator, partial curve, poor fit]	–
Cc1ccc(S(=O)(=O)CC(=O)Nc2ccc(Cl)cn2)cc1	–	inactive: -17.8%
c1ccc(-c2cncn2-c2ccccc2)cc1	–	inactive: 17.7%
COC(=O)NCC(C)OC(=O)Nc1ccc(Cl)cc1 (stereo not drawn)	inconclusive: 5.8 µM [activator, full curve]	–

SMILES	Potency	activity change, negative = inhibition
Cc1ccc(/C=C2\SC(=S)N(C3CCS(=O)(=O)C3)C2=O)cc1 (stereo not drawn)	–	inactive: -3.66%
CCc1ccc(S(=O)(=O)NCc2csc(-c3ccccc3)n2)s1	–	inactive: -21.5%
CCCc1cc(=O)n2c(nc3ccccc32)[nH]1	inconclusive: 18.4 µM [activator, partial curve]	–
COc1cc(S(=O)(=O)N2CCOCC2)ccc1NC(=O)COC(=O)CC12CC3CC(CC(C3)C1)C2	active: 18.4 µM	–
CC(C)NC(=O)Nc1cccc2c1O[C@H](CN(C)C(=O)NC1CCCCC1)[C@@H](C)CN([C@H](C)CO)C2=O	–	inactive: -3.43%
COc1ccc(C(=O)O)cc1NC(=S)NC(=O)C(c1ccccc1)c1ccccc1	–	inactive: 0.664%
CCOc1ccc(NC(=O)C2CCCN2C(=O)OCc2ccccc2)cc1 (stereo not drawn)	–	inactive: 6.29%
O=C(Nc1ncn[nH]1)c1cccc(F)c1	–	inactive: 10.8%
N#C/C(=N/Nc1ccc(S(=O)(=O)N2CCOCC2)cc1)C(N)=O	–	inactive: -22%
CC(=O)c1ccc(Nc2cc(C)nc3c(C)cc(C)cc23)cc1	inconclusive: 11.6 µM [inhibitor, partial curve, poor fit]	–
Cc1noc(C)c1C(=O)N1CCCC(C(=O)c2cccc(OC(C)C)c2)C1 (stereo not drawn)	–	inactive: -4.93%
O=C(Nc1nnc(C2CC2)s1)c1cncc(Br)c1	inconclusive: 11.6 µM [activator, partial curve]	–
COC(=O)c1ccc(NC(=O)c2snnc2-c2ccccc2)cc1	inconclusive: 32.6 µM [inhibitor, partial curve, poor fit]	–
N#CC1=C(N)Oc2cc(N)ccc2C1c1cccnc1 (stereo not drawn)	–	inactive: -11.8%
COc1ccc(C2/C=C\CN(S(=O)(=O)c3ccc(C)cc3)CC(=O)N2Cc2cccc(F)c2)cc1 (stereo not drawn)	active: 20.6 µM	–
COc1cc2c(cc1OC)C(=O)N1[C@H]3c4cc(Cl)ccc4OC[C@@H]3[C@H](c3ccccc3)[C@]1(C)C(=O)N2	inconclusive: 12.6 µM [inhibitor, single point]	–
NS(=O)(=O)c1ccc(NN=C2CCN(Cc3ccccc3)CC2)c([N+](=O)[O-])c1	–	inactive: 4.11%
OCCNc1nc2nonc2nc1NCCO	–	inactive: 0.595%
CN(C)S(=O)(=O)N1CCN(CC(=O)Nc2cc(Cl)ccc2Cl)CC1	–	inactive: -36.1%
O=C(CCN1C(=O)CSc2ccccc21)Nc1ccc(OC(F)(F)F)cc1	–	inactive: -26.3%
Cn1c2ccccc2n2c(=O)c(=O)n(CC(=O)c3ccc(Cl)cc3)nc12	–	inactive: 16.5%
COc1ccc(-c2cn(Cc3ccc4ccccc4c3)nn2)cc1	inconclusive: 16.4 µM [activator, single point]	–
O=C(CNS(=O)(=O)c1ccc([N+](=O)[O-])cc1)N/N=C/c1ccc(O)cc1O	inconclusive: 13 µM [inhibitor, partial curve, poor fit]	–
O=C(CSc1ccc2c(c1)OCCO2)NC(=O)NC1CCCC1	active: 0.731 µM	–
CCn1cc(C(=O)N2CCCc3ccccc32)c2cc(OC)c(OC)cc2c1=O	inconclusive: 5.17 µM [inhibitor, partial curve, poor fit]	–

Of the compounds above, these have two or more sulfur atoms:
SMILES	Potency	activity change, negative = inhibition
Cc1cc(-c2ccc(S(=O)(=O)N3CCN(c4cccc(C)c4C)CC3)s2)on1	inconclusive: 29.1 µM [inhibitor, single point]	–
Cc1cnc(NC(=O)c2ccc3ncsc3c2)s1	inconclusive: 2.91 µM [activator, partial curve]	–
CCCOc1ccc(CSCCNC(=S)Nc2ccccc2)cc1	inconclusive: 18.4 µM [inhibitor, partial curve, poor fit]	–
Cc1ccc(/C=C2\SC(=S)N(C3CCS(=O)(=O)C3)C2=O)cc1 (stereo not drawn)	–	inactive: -3.66%
CCc1ccc(S(=O)(=O)NCc2csc(-c3ccccc3)n2)s1	–	inactive: -21.5%

More structures:

SMILES	Potency	activity change, negative = inhibition
COc1cc(O)c(C(CC(=O)N2CCCCC2)c2ccc(N(C)C)cc2)c(OC)c1 (stereo not drawn)	–	inactive: 0.0226%
CCOC(=O)c1c(CSCc2ccccc2)oc2ccc(O)c(CN(C)C)c12	–	inactive: -14.8%
COc1cccc(C(=O)OCC(=O)c2c(N)n(C)c(=O)n(C)c2=O)c1	–	inactive: 44.9%
CN(C(=O)c1sc2nc(N3CCOCC3)c3c(c2c1N)CCCC3)c1ccccc1	active: 13 µM	–
COc1ccc(OCC(=O)NC(=S)N2CCCc3ccccc32)cc1	inconclusive: 18.4 µM [activator, partial curve]	–
CCc1cc2cccc(C)c2nc1SCC(=O)Nc1cc(C)on1	inconclusive: 16.4 µM [activator, partial curve, poor fit]	–
Cc1cccc(NC(=O)NNC(=O)c2nn(C)cc2Br)c1	inconclusive: 6.51 µM [activator, partial curve, poor fit]	–
COC(=O)c1ccc(-c2ccc(/C=N/N3C(=O)C4C5C=CC(CC5)C4C3=O)o2)cc1 (stereo not drawn)	inconclusive: 2.91 µM [activator, full curve]	–
O=C(NCC(=O)N1CCCCCCC1)c1ccco1	inconclusive: 16.4 µM [activator, partial curve]	–
CCOC(=O)C1CCN(c2nc3ccccc3nc2C(C#N)C(=O)NCCc2ccccc2)CC1 (stereo not drawn)	inconclusive: 18.4 µM [activator, single point]	–
CCCN(N=Nc1cccc([N+](=O)[O-])c1)c1cccc([N+](=O)[O-])c1	–	inactive: -7.09%
Cn1nc(C(C)(C)C)cc1NC(=O)Nc1ccc(F)cc1F	inconclusive: 29.1 µM [inhibitor, single point]	–
FC(F)(F)c1cc(NCc2cccs2)n2ncnc2n1	inconclusive: 0.0651 µM [activator, partial curve, poor fit]	–
Cc1cc(O)c(C(=O)/C=C/c2ccc(C(C)C)cc2)c(=O)o1	inconclusive: 18.3 µM [activator, partial curve]	–
O=C(NO)c1ccc(C(=O)N(C2CCCCC2)C2CCCCC2)cc1	inconclusive: 10 µM [inhibitor, partial curve]	–
CCCCCCSc1cc(-c2nc3ccc(C)cn3c2NCCCC)ccc1OC	inconclusive: 16.4 µM [inhibitor, single point]	–
O=C1COc2ccc(N3C(=O)c4ccccc4C3=O)cc2N1	inconclusive: 23.1 µM [inhibitor, single point]	–
CCCCc1ccc(NC(=S)NCCO)cc1	–	inactive: 6.42%
COCCNC(=O)c1nn(-c2cc(OC)cc(OC)c2)c(=O)c2ccccc12	inconclusive: 11.6 µM [inhibitor, single point]	–
CC(=O)c1ccc(NC(=O)CSc2ccc3nnc(-c4cccnc4)n3n2)cc1	–	inactive: 20.2%
CC1CN(Cc2csc(-c3ccc(Cl)cc3)n2)CC(C)O1 (stereo not drawn)	inconclusive: 2.91 µM [activator, partial curve, poor fit]	–
CC(C)Nc1nnc(SCC(=O)Nc2sccc2C#N)s1	–	inactive: 24.7%
O=C(CNS(=O)(=O)c1ccc(Cl)cc1)N1CCN(c2ccc(F)cc2)CC1	active: 23.1 µM	–
